The supplement of paper PMC12819154, “High-throughput peptide-centric local stability assay extends protein–ligand identification to membrane proteins, tissues and bacteria” (Nature Structural & Molecular Biology, 2025)
This is one part of the list. Most entries show no effect beyond the scatter of the controls.

Sequences of proteins named here, by UniProt entry; tags and fusion partners are left off. A change or cut given only in a name is not applied to a line headed by its entry.
UniProt P54726: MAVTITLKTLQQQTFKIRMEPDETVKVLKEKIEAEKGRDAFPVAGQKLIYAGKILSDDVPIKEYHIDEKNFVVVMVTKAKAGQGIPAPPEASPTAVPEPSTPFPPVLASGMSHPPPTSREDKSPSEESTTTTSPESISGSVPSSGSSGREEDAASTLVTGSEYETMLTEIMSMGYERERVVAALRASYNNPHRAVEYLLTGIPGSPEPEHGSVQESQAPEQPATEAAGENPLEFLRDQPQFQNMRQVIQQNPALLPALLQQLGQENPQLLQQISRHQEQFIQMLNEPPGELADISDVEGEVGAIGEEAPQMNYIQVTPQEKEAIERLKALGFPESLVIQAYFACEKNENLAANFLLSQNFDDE
UniProt P48776: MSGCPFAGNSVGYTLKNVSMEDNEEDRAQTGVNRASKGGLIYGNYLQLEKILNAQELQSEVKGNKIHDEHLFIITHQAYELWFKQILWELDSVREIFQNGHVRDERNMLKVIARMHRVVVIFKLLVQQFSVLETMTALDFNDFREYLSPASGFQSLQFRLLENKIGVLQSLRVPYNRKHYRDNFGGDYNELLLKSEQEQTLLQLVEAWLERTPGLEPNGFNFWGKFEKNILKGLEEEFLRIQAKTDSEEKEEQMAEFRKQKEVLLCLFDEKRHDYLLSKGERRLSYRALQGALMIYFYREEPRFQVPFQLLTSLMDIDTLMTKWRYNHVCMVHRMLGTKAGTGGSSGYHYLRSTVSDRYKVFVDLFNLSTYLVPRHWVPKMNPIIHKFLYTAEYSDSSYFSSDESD
UniProt P50518, whole entry: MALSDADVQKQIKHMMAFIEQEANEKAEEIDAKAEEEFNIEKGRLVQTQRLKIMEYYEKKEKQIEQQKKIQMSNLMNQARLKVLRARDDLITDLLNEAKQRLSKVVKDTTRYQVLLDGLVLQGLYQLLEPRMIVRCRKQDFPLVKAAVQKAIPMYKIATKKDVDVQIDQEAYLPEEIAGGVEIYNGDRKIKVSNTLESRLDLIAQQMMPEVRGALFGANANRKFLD
UniProt P56382: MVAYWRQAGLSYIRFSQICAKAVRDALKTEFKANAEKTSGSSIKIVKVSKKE
UniProt P35951: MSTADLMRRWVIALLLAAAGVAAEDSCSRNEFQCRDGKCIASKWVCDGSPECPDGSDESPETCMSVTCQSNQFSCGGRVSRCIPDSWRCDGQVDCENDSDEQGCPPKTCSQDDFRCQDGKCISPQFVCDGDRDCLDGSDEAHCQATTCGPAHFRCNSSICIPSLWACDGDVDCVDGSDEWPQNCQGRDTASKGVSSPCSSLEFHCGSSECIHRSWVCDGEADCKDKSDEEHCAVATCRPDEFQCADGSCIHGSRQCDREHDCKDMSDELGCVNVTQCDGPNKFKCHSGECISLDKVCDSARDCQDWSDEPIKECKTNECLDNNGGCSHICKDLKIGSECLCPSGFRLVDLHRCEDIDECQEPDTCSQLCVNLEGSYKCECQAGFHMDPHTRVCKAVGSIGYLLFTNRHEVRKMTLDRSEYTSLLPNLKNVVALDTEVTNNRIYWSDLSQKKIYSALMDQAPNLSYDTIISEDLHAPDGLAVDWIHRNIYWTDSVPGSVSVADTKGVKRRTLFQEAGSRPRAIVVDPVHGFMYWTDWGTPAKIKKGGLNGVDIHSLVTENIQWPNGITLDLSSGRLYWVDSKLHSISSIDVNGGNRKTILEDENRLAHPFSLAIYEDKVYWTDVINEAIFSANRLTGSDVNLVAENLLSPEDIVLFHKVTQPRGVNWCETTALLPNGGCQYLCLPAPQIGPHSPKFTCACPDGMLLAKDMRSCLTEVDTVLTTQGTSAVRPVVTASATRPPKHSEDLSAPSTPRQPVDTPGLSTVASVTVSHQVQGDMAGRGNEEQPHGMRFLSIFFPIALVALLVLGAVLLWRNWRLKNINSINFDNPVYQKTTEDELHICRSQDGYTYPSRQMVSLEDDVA
UniProt P53395, whole entry: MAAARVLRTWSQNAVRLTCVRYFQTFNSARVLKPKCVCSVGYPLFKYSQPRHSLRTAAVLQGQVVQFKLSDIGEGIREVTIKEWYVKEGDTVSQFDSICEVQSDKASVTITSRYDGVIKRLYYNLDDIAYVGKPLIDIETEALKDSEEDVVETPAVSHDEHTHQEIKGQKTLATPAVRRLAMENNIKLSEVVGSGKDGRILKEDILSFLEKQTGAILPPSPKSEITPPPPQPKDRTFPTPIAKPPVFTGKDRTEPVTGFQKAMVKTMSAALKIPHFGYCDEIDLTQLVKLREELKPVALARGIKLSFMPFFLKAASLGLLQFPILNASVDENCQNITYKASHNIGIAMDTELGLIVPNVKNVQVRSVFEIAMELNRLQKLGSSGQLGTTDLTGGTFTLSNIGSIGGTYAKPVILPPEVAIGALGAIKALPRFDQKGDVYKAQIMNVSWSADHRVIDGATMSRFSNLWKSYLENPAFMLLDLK
UniProt P37040: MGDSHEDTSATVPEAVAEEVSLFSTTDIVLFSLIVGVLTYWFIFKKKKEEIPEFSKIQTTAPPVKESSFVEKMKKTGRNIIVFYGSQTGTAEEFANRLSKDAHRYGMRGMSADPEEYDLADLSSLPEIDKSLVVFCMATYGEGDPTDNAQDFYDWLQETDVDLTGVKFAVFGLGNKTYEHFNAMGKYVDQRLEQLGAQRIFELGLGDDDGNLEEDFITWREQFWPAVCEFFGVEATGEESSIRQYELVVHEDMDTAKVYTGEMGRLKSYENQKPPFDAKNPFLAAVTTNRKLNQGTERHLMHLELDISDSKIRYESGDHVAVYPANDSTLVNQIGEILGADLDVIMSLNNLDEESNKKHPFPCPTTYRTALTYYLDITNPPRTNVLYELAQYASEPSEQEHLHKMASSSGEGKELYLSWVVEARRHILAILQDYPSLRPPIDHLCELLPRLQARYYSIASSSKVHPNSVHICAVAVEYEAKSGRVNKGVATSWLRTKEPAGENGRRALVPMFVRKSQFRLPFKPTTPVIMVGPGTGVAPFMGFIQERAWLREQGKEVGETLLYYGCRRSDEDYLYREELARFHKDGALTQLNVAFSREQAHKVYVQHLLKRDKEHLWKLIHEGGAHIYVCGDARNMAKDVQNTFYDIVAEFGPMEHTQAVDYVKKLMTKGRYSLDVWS
UniProt P52793: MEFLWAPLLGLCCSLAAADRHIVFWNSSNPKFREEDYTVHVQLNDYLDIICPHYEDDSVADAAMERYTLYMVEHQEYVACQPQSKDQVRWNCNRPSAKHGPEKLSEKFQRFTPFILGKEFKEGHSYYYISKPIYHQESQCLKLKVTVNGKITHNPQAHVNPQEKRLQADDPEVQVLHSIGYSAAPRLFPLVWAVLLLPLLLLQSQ
UniProt P52760: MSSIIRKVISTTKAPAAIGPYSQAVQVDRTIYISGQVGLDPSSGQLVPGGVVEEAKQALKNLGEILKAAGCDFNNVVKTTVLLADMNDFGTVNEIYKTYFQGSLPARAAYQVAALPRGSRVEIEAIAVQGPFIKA
UniProt P31532: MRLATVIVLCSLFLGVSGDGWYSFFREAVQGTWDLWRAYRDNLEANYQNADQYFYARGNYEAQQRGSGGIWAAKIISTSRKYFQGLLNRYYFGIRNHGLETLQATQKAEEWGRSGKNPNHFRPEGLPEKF
UniProt P35285: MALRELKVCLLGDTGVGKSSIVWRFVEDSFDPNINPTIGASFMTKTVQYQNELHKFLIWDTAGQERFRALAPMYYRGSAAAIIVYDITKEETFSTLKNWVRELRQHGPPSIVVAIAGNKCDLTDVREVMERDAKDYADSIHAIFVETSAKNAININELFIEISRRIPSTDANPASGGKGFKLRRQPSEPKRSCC
UniProt P55012: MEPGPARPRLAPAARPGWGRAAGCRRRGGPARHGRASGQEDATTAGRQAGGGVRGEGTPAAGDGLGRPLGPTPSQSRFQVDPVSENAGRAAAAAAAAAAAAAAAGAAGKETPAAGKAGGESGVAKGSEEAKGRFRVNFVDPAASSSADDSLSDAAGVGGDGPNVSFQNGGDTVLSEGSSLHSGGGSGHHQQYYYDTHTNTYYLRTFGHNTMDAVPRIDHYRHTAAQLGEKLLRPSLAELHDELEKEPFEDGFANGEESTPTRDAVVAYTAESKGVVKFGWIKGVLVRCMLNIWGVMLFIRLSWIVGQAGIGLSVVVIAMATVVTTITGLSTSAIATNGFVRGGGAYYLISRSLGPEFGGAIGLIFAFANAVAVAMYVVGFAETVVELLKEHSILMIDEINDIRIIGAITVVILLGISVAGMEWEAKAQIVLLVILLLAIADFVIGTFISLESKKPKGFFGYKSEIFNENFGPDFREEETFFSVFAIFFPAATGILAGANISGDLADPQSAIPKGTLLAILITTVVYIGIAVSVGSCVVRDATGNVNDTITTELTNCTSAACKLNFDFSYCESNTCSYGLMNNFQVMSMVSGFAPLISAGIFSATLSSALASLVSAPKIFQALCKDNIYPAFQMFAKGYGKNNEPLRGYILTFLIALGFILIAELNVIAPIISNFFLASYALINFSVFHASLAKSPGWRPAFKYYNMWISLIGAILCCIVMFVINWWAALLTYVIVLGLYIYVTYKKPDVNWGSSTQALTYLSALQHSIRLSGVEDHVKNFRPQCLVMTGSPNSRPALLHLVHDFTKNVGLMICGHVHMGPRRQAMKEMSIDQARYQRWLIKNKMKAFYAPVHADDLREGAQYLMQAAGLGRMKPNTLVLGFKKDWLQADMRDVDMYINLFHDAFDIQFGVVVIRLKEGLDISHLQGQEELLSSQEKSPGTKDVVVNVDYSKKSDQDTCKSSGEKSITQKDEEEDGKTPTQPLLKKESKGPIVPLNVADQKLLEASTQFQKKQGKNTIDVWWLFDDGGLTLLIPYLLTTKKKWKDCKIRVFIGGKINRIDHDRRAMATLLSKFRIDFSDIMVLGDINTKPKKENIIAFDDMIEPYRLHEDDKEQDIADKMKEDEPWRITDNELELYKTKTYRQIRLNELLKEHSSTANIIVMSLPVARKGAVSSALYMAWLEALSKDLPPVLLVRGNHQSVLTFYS
UniProt P45878: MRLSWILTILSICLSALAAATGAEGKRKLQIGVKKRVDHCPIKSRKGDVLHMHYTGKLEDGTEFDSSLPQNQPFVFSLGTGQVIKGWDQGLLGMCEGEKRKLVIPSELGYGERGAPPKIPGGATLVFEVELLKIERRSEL
UniProt P36552: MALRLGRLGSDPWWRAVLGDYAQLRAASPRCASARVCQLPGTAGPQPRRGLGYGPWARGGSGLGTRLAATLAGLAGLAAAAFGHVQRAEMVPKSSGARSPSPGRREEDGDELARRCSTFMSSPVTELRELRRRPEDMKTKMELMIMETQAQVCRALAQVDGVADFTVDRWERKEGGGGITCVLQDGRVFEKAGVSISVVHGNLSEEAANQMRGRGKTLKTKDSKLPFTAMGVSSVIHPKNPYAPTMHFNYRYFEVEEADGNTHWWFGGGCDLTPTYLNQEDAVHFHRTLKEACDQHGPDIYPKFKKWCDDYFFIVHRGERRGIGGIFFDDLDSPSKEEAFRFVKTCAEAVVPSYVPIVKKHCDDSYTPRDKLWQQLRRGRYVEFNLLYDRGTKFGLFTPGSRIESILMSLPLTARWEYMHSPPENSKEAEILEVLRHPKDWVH
UniProt P49442: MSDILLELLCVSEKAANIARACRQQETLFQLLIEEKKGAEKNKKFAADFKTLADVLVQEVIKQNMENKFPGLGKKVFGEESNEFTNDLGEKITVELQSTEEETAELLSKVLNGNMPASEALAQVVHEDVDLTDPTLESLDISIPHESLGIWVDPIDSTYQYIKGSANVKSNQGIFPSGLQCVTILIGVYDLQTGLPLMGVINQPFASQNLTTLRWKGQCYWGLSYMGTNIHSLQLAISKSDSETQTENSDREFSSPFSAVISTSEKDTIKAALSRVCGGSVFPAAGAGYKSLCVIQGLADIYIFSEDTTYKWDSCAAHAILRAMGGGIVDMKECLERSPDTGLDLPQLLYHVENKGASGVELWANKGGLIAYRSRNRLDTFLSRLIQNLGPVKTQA
UniProt P38060: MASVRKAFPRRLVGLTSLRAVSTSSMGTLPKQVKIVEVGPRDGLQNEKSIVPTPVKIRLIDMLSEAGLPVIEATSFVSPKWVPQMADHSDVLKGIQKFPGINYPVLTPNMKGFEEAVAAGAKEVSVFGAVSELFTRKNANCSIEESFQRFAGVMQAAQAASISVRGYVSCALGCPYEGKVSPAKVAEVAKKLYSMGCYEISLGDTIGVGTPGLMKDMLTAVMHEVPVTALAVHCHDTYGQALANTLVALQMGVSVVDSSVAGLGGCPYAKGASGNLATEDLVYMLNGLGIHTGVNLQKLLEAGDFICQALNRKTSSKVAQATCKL
UniProt P56379: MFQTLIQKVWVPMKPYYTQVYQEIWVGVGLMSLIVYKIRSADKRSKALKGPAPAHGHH
UniProt P48758: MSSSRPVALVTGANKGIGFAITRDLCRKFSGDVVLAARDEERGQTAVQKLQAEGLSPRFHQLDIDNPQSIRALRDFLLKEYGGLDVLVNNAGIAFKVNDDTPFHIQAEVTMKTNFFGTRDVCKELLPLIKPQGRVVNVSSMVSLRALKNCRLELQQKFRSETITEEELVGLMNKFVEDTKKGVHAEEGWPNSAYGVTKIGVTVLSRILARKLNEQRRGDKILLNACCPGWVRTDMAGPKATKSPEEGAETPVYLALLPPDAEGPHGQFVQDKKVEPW

compound: CN[C@@H]1C[C@H]2O[C@@](C)([C@@H]1OC)n1c3ccccc3c3c4c(c5c6ccccc6n2c5c31)C(=O)NC4 [staurosporine]; assay: log2 fold change of pooled soluble protein (PISA), ligand vs vehicle (log2 ratio); higher = more thermally stabilized; settings: ligand concentration: 20 uM; assay format: PISA pool 52.9/55.5/58.6 C

Target | log2 fold change of pooled soluble protein
UniProt P29788 | -0.064
UniProt P45376 | -0.134
UniProt P34914 | 0.0262
UniProt P35922 | -0.153
UniProt P54726 | 0.161
UniProt P48776 | 0.118
UniProt P42703 | 0.0707
UniProt P51660 | -0.0367
UniProt P30285 | -0.216
UniProt P35492 | -0.262
UniProt P50518 | -0.124
UniProt P56382 | -0.0201
UniProt P35951 | -0.0106
UniProt P53395 | -0.0877
UniProt P47911 | -0.114
UniProt P41216 | -0.0305
UniProt P56528 | -0.0752
UniProt P37040 | -0.0313
UniProt P56213 | 0.0368

Target | log2 fold change of pooled soluble protein
UniProt P52793 | -0.288
UniProt P52760 | -0.0105
UniProt P31532 | -0.118
UniProt P40336 | 0.256
UniProt P35285 | -0.282
UniProt P55012 | -0.251
UniProt P45878 | 0.392
UniProt P33267 | -0.00123
UniProt P35279 | -0.0137
UniProt P36552 | 0.366
UniProt P30999 | -0.00426
UniProt P48377 | -0.0432
UniProt P49442 | 0.363
UniProt P49070 | -0.395
UniProt P38060 | -0.0596
UniProt P56379 | 0.056
UniProt P48758 | -0.0482
UniProt P52825 | -0.122

No new results follow: an excerpt of the list.
Target | log2 fold change of pooled soluble protein
UniProt P30999 | -0.00426
UniProt P48377 | -0.0432
